In the test the target is T1, MICU1 (mouse brain) (mouse (endogenous in brain)) (UniProt Q8VCX5).
T1 sequence: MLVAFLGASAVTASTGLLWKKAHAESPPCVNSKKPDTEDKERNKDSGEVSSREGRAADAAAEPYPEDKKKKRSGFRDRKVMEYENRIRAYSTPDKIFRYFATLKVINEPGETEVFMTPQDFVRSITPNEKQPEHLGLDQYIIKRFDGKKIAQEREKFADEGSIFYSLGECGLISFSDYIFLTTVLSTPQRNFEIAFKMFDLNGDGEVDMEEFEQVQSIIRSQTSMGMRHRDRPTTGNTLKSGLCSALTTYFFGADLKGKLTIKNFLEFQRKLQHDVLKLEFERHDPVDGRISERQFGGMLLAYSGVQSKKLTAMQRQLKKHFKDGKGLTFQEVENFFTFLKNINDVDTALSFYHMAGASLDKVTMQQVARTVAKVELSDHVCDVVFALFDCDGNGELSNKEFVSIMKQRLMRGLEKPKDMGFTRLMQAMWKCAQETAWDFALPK
The test can be described thus: non-reducing SDS-PAGE and immunoblot.

These are yes or no findings as the source states them, for the method shown. Some binding calls cover weakened binding; strength is not graded here.

B1: MICU3 (mouse brain) (protein, UniProt Q9CTY5 7-523)
chain: FLWPPPRLSPALAPQQPFLSPWGRPAGTAPGMSGRPFSCREEDEGAVAEAAWRRRRWGELSIAAAAGGGLVGLVCYQLYGDPRADPSELAAPELEDPPRGRGLLPIPVAAAKETVATGRAITEDLDLYATSRERRFRLFASIECEGQLFMTPYDFILAVTTDEPKFAKTWKSLSKQELSQMLSETPPVWKGSSKLFRNLKERGVISYTEYLFLLCILTKPHAGFRIAFNMFDTDGNEMVDKKEFLVLQEIFRKKNEKRETKGDEEKRAMLRLQLYGYHSPTNSVLKTDAGELVSRSYWDTLRRSTSQALFSDLAERADDITSLVADTTLLVHFFGKKGKAELNFEDFYRFMDNLQTEVLEIEFLSYSNGMNTISEEDFAHILLRYTNVENTSVFLENVRYSISEEKGITFDEFRSFFQFLNNLEDFAIALNMYNFASRSIGQDEFKRAVYVATGLKLSPHLVNTVFKIFDVDKDDQLSYKEFIGIMKDRLHRGFRGYKTVQKYPTFKSCLKKELHSR
Take B1: the binding result is “binds”.

For the origin of these results see doi:10.1101/2024.02.20.581153.
